Measurements reported in PubChem BioAssay AID1259254 (NCATS, 2017)
Purpose: 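Genome-wide screen for genes that prevent DNA re-replication in cancer cells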 (primary screen). System: human HCT116 colorectal cancer cells. Reagent: single siRNA against human genes. Timing: 3 days. Measured: 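Nuclei stained with Hoechst and imaged; cell-cycle phase assigned by DNA content; G2 share scaled per plate, non-targeting siRNA 0%, GMNN siRNA 100%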. Reading the numbers: G2 robust z-score: higher = more G2 cells, more excess DNA replication. Rule for the call: 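Active siRNAs have a G2 robust z of 5 or more median absolute deviations over the median, which in these data means about 38% or higher of GMNN control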.
Here is one part, drawn at random, of about 59,000 deposited reagents. About 1,550 of all reagents (2.6%) were called active. 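G2 share is only a proxy for re-replication; each gene was hit by three separate siRNAs, and active genes were retested.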 A number with no mark means an inactive call. The numbers tell different reagents against one gene apart. Further read-outs or replicates are left out here. Not stated in the record: the amount of reagent.

With knock-down of UQCR10 #1, the record shows G2 robust z-score -0.619.
UQCR10 #2 scored G2 robust z-score 2.39.
UQCR10 #3 scored G2 robust z-score 1.73.
After knock-down of OR5B17 #1, the record shows G2 robust z-score -0.259.
Against OR5B17 #2, the entry reads G2 robust z-score -0.587.
OR5B17 #3 gave G2 robust z-score -0.103.
Against OR13F1 #1, the values are G2 robust z-score 0.528.
Depletion of OR13F1 #2 gave: G2 robust z-score -0.793.
For OR13F1 #3 the deposit lists G2 robust z-score -0.412.
Against NEUROG1 #1, the values are G2 robust z-score 0.219.
NEUROG1 #2 gave G2 robust z-score -0.494.
NEUROG1 #3 gave G2 robust z-score -0.303.
BNC2 #1 gave G2 robust z-score -0.285.
BNC2 #2 showed G2 robust z-score -0.788.
After knock-down of BNC2 #3, the screen gave G2 robust z-score -0.147.
Knock-down of FAM153CP #1 came out at: G2 robust z-score 0.211.
FAM153CP #2 scored G2 robust z-score 0.279.
FAM153CP #3 gave G2 robust z-score 0.0862.

Entries listed so far whose target name begins with F or f:
FAM153CP #1 → G2 robust z-score: 0.211
FAM153CP #2 → G2 robust z-score: 0.279
FAM153CP #3 → G2 robust z-score: 0.0862
